Measured values published in PMC8395886, “Square-Planar vs. Trigonal Bipyramidal Geometry in Pt(II) Complexes Containing Triazole-Based Glucose Ligands as Potential Anticancer Agents” (International Journal of Molecular Sciences, 2021).

Test: Reactivity with L-methionine (1H-NMR)
Details: 2.5 eq methionine, 9:1 v/v D2O (PBS, pH 7.4):DMSO-d6, 37 °C, within 48 h

Structure (SMILES) | Coordination of methionine
CC(=O)OC[C@H]1O[C@@H](n2cc(-c3c[n+]([Pt-2]4([CH3])[n+]5cccc6ccc7ccc[n+]4c7c65)cn3C)nn2)[C@H](OC(C)=O)[C@@H](OC(C)=O)[C@@H]1OC(C)=O.O=S(=O)([O-])C(F)(F)F [4Pt-im] | no sign of coordination of methionine
CC(=O)OC[C@H]1O[C@@H](n2cc(-c3ccc[n+]([Pt-2]4([CH3])[n+]5cccc6ccc7ccc[n+]4c7c65)c3)nn2)[C@H](OC(C)=O)[C@@H](OC(C)=O)[C@@H]1OC(C)=O.O=S(=O)([O-])C(F)(F)F [4Pt-py] | no sign of coordination of methionine
